# According to PubChem BioAssay AID248 (DTP/NCI, 2004):
# The list does not hold the whole screen: it gathers some chemical classes. Other doses and runs of a compound may be missing. T/C gives the treated animals as a percentage of the vehicle group. Some doses have a count of surviving animals in place of a T/C: the source holds a T/C of zero for them, seemingly a mark for toxic or unscored doses. Some survivor counts are full or nearly so, which does not show that the dose was tolerated: survival well below the control is almost never listed, so the zero probably covers shortened survival too. Counts of survivors are from the toxicity check (mostly the fifth day) where no day follows; animals may have died later. Schedule codes are those of the source, read here as Q, the interval in days (D) or hours (H), X, the number of doses. Some schedule codes hold Z or #, which are not explained here. For survival time, the PubChem record calls one and a half times the control and up active, and a quarter to a half above the control has no call in these data; cut-offs in other NCI protocols can differ. Some T/C values are followed by the survivors on the day toxicity was checked, most often the fifth; without a count or a note in brackets, all were alive then. Some entries were tested several times; the values are given in rising order. Some T/C values are marked as having no survivor count here; that says nothing about deaths at the dose.
# System: L1210 leukemia ip in BDF1 mice, survival T/C
# Test: NCI In Vivo Anticancer Drug Screen. Data for tumor model L1210 Leukemia (intraperitoneal) in B6D2F1 (BDF1) mice
# Conditions: T/C endpoint: mean survival time, higher T/C = longer survival
# [1] = dose: 100.0 mg/kg/injection, schedule: Q04DX003 (ip), vehicle: saline
# [2] = dose: 200.0 mg/kg/injection, schedule: Q04DX003 (ip), vehicle: saline
smiles,measurement,setting,value
O=C(NCC(=O)N(CCCl)CCCl)Oc1ccccc1,T/C,"dose: 50.0 mg/kg/injection, schedule: Q01DX001 (ip), vehicle: carboxymethylcellulose (CMC)",111 % of control
same,T/C,"dose: 100.0 mg/kg/injection, schedule: Q01DX001 (ip), vehicle: carboxymethylcellulose (CMC)",111 % of control
same,T/C,"dose: 200.0 mg/kg/injection, schedule: Q01DX001 (ip), vehicle: carboxymethylcellulose (CMC)",94 % of control
same,T/C,"dose: 400.0 mg/kg/injection, schedule: Q01DX001 (ip), vehicle: carboxymethylcellulose (CMC)",97 % of control
O=C(OC1CN2CCC1CC2)c1ccccc1O (configuration not stated),T/C,"dose: 6.25 mg/kg/injection, schedule: Q04DX003 (ip), vehicle: saline",96 % of control
same,T/C,"dose: 12.5 mg/kg/injection, schedule: Q04DX003 (ip), vehicle: saline",97 % of control
same,T/C,"dose: 25.0 mg/kg/injection, schedule: Q04DX003 (ip), vehicle: saline",100 % of control
CC(/C=N/N=C(\N)N[N+](=O)[O-])=N\N=C(/N)N[N+](=O)[O-],T/C,"dose: 15.0 mg/kg/injection, schedule: Q01DX Z (ip), vehicle: methylcellulose (MC)",92 % of control
same,T/C,"dose: 30.0 mg/kg/injection, schedule: Q01DX Z (ip), vehicle: methylcellulose (MC)",86 % of control
same,T/C,"dose: 30.0 mg/kg/injection, schedule: Q01DX Z (oral), vehicle: methylcellulose (MC)",97 % of control [4 of 6 alive]
same,T/C,"dose: 60.0 mg/kg/injection, schedule: Q01DX Z (ip), vehicle: methylcellulose (MC)",97 % of control
same,T/C,"dose: 60.0 mg/kg/injection, schedule: Q01DX Z (oral), vehicle: methylcellulose (MC)",86 % of control [5 of 6 alive]
same,survivor count,"dose: 120.0 mg/kg/injection, schedule: Q01DX Z (ip), vehicle: methylcellulose (MC)",1 of 6
same,T/C,"dose: 120.0 mg/kg/injection, schedule: Q01DX Z (oral), vehicle: methylcellulose (MC)",94 % of control [5 of 6 alive]
same,survivor count,"dose: 240.0 mg/kg/injection, schedule: Q01DX Z (oral), vehicle: methylcellulose (MC)",2 of 6
C1CCC2(CC1)OOC1(CCCCC1)OOC1(CCCCC1)OO2,T/C,"dose: 50.0 mg/kg/injection, schedule: Q01DX009 (ip), vehicle: saline with Tween-80",96 % of control [survivor count not shown]
same,T/C,"dose: 100.0 mg/kg/injection, schedule: Q01DX009 (ip), vehicle: saline with Tween-80",96 % of control [survivor count not shown]
same,T/C,"dose: 200.0 mg/kg/injection, schedule: Q01DX009 (ip), vehicle: saline with Tween-80",96 % of control [survivor count not shown]
CC(C)([N+](=O)[O-])C(C)(C)[N+](=O)[O-],T/C,"dose: 5.0 mg/kg/injection, schedule: Q01DX001 (ip), vehicle: saline",102 % of control
same,T/C,"dose: 10.0 mg/kg/injection, schedule: Q01DX001 (ip), vehicle: saline",102 % of control
same,T/C,"dose: 20.0 mg/kg/injection, schedule: Q01DX001 (ip), vehicle: saline",100 % of control
same,T/C,"dose: 40.0 mg/kg/injection, schedule: Q01DX001 (ip), vehicle: saline",102 % of control
same,survivor count,"dose: 80.0 mg/kg/injection, schedule: Q01DX001 (ip), vehicle: saline",0 of 4
same,survivor count,"dose: 100.0 mg/kg/injection, schedule: Q01DX001 (ip), vehicle: saline",1 of 4
same,survivor count,"dose: 200.0 mg/kg/injection, schedule: Q01DX001 (ip), vehicle: saline",0 of 4
same,survivor count,"dose: 400.0 mg/kg/injection, schedule: Q01DX001 (ip), vehicle: saline",0 of 4
CCN(CC)c1ccc([N+]#N)cc1.F[P-](F)(F)(F)(F)F,T/C,"dose: 0.75 mg/kg/injection, schedule: Q01DX009 (ip), vehicle: saline with Tween-80",101 % of control
same,T/C,"dose: 1.5 mg/kg/injection, schedule: Q01DX009 (ip), vehicle: saline with Tween-80",104 % of control
same,T/C,"dose: 1.5 mg/kg/injection, schedule: Q04DX003 (ip), vehicle: saline with Tween-80",102 % of control
same,T/C,"dose: 3.0 mg/kg/injection, schedule: Q01DX009 (ip), vehicle: saline with Tween-80",109 % of control
same,T/C,"dose: 3.0 mg/kg/injection, schedule: Q04DX003 (ip), vehicle: saline with Tween-80",96 % of control
same,survivor count,"dose: 6.0 mg/kg/injection, schedule: Q04DX003 (ip), vehicle: saline with Tween-80",3 of 6
same,survivor count,"dose: 12.5 mg/kg/injection, schedule: Q04DX003 (ip), vehicle: saline with Tween-80",0 of 6
same,survivor count,"dose: 25.0 mg/kg/injection, schedule: Q04DX003 (ip), vehicle: saline with Tween-80",0 of 6
same,survivor count,"dose: 50.0 mg/kg/injection, schedule: Q04DX003 (ip), vehicle: saline with Tween-80",0 of 6
same,survivor count,"dose: 100.0 mg/kg/injection, schedule: Q04DX003 (ip), vehicle: saline with Tween-80",0 of 6
same,survivor count,"dose: 200.0 mg/kg/injection, schedule: Q04DX003 (ip), vehicle: saline with Tween-80",0 of 6
same,survivor count,"dose: 400.0 mg/kg/injection, schedule: Q04DX003 (ip), vehicle: saline with Tween-80",0 of 6
CCCN(CCC)CCO,T/C,"dose: 50.0 mg/kg/injection, schedule: Q01DX009 (ip), vehicle: saline",95 % of control [survivor count not shown]
same,T/C,"dose: 100.0 mg/kg/injection, schedule: Q01DX009 (ip), vehicle: saline",92 % of control [survivor count not shown]
same,T/C,[1],96 % of control [survivor count not shown]
same,T/C,"dose: 200.0 mg/kg/injection, schedule: Q01DX009 (ip), vehicle: saline",99 % of control [survivor count not shown]
same,T/C,[2],102 % of control [survivor count not shown]
C[CH2][Sn]([C]#N)([CH2]C)[CH2]C,T/C,"dose: 3.12 mg/kg/injection, schedule: Q04DX002 (ip), vehicle: saline with Tween-80",96 % of control
same,T/C,"dose: 6.25 mg/kg/injection, schedule: Q04DX002 (ip), vehicle: saline with Tween-80",101 % of control
same,T/C,"dose: 12.5 mg/kg/injection, schedule: Q04DX002 (ip), vehicle: saline with Tween-80",90 [2 of 3 alive] and 111 % of control
same,survivor count,"dose: 25.0 mg/kg/injection, schedule: Q04DX002 (ip), vehicle: saline with Tween-80",0 of 3
same,survivor count,"dose: 50.0 mg/kg/injection, schedule: Q04DX002 (ip), vehicle: saline with Tween-80",0 of 3
same,survivor count,"dose: 100.0 mg/kg/injection, schedule: Q04DX002 (ip), vehicle: Klucel (hydroxypropylcellulose) (HPC)",0 of 3
same,survivor count,"dose: 200.0 mg/kg/injection, schedule: Q04DX002 (ip), vehicle: Klucel (hydroxypropylcellulose) (HPC)",0 of 3
same,survivor count,"dose: 400.0 mg/kg/injection, schedule: Q04DX002 (ip), vehicle: Klucel (hydroxypropylcellulose) (HPC)",0 of 3
CCN(CC)CCOC(=O)C(O)(c1ccccc1)c1cc(C)cc(C)c1C (configuration not stated),T/C,"dose: 10.0 mg/kg/injection, schedule: Q01DX009 (ip), vehicle: Klucel (hydroxypropylcellulose) (HPC)",112 % of control
same,T/C,"dose: 12.5 mg/kg/injection, schedule: Q01DX009 (ip), vehicle: Klucel (hydroxypropylcellulose) (HPC)",100 % of control
same,T/C,"dose: 12.5 mg/kg/injection, schedule: Q04DX003 (ip), vehicle: Klucel (hydroxypropylcellulose) (HPC)",97 % of control
same,T/C,"dose: 20.0 mg/kg/injection, schedule: Q01DX009 (ip), vehicle: Klucel (hydroxypropylcellulose) (HPC)",110 % of control
same,T/C,"dose: 20.0 mg/kg/injection, schedule: Q04DX003 (ip), vehicle: Klucel (hydroxypropylcellulose) (HPC)",96 % of control
same,T/C,"dose: 25.0 mg/kg/injection, schedule: Q01DX009 (ip), vehicle: Klucel (hydroxypropylcellulose) (HPC)",94 % of control
same,T/C,"dose: 25.0 mg/kg/injection, schedule: Q04DX003 (ip), vehicle: Klucel (hydroxypropylcellulose) (HPC)",97 % of control
same,T/C,"dose: 40.0 mg/kg/injection, schedule: Q01DX009 (ip), vehicle: Klucel (hydroxypropylcellulose) (HPC)",95 % of control
CCCCOP(C)(=S)OCCCC,T/C,"dose: 100.0 mg/kg/injection, schedule: Q04DX002 (ip), vehicle: saline with Tween-80",111 % of control [survivor count not shown]
same,T/C,"dose: 200.0 mg/kg/injection, schedule: Q04DX002 (ip), vehicle: saline with Tween-80",111 % of control [survivor count not shown]
CCOP(OCC)OCc1ccccc1,T/C,[1],124 % of control
same,T/C,[2],97 % of control
same,T/C,"dose: 400.0 mg/kg/injection, schedule: Q04DX003 (ip), vehicle: saline",109 % of control
CCCCP(Cl)CCCC,T/C,"dose: 100.0 mg/kg/injection, schedule: Q04DX003 (ip), vehicle: Klucel (hydroxypropylcellulose) (HPC)",105 % of control
same,T/C,"dose: 200.0 mg/kg/injection, schedule: Q04DX003 (ip), vehicle: Klucel (hydroxypropylcellulose) (HPC)",99 % of control
same,survivor count,"dose: 400.0 mg/kg/injection, schedule: Q04DX003 (ip), vehicle: Klucel (hydroxypropylcellulose) (HPC)",6 of 6
